In patent US4880014A, “Method for determining therapeutic drug dosage using bioelectrical resistance and reactance measurements” (priority 1988, dated 1989):

Assay: Theophylline pharmacokinetics in fifteen normal adult males from serum concentrations (Lagran), and dose calculated from measured Cl
Assay type: in vivo, human
Conditions: mean of fifteen subjects; Q8; column G
Description: Fifteen normal adult males were used in the following study. Each subject was given a single intravenous dosage of theophylline.
Serial blood samples were obtained, for all fifteen patients, from an intravenous catheter placed in the arm.
F=1.0, assuming 100% oral absorption

In the case of Cn1c(=O)c2[nH]cnc2n(C)c1=O [theophylline], the “Dose Calculation from Measured Cl, Dose/T, MEAN” value is reported as 251 mg/8 hour.
